Experimental findings from publication PMC7862700 are described below.

Chains of the proteins cited; added tags and fusions are not shown. Lines headed by an entry give the natural chain unless they say otherwise; changes in a name come on top.
UniProt Q00613: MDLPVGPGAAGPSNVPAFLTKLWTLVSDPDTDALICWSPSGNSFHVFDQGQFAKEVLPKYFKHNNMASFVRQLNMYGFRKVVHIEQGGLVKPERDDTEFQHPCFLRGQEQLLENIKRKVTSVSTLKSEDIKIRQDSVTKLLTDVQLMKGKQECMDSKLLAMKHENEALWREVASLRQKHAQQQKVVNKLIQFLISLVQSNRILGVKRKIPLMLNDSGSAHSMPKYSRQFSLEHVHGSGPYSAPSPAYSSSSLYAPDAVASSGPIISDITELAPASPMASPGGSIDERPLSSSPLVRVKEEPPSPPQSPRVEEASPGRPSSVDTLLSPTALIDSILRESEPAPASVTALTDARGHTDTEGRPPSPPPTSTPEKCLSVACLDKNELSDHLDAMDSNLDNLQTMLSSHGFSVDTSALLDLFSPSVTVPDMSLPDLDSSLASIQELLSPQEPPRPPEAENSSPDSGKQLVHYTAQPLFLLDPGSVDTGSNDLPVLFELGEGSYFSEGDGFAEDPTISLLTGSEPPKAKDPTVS

The list shows a part of the results, in another mix than the full data. For some assays here: At the low end of the ranking the order means little. This is one part of the list. For some assays here: The source does not settle which construct or isoform was used.

One assay has as its target HSF1 (UniProt Q00613). In words: DAPPL (digital affinity profiling via proximity ligation, sequencing). The note with it: 10 mM Tris-HCl pH 7.5, 50 mM NaCl, 1 mM DTT, 4% glycerol, room temperature, 30 min; GST-TFs on glutathione beads, 16-mer random dsDNA library, 0.1% …; high values mean tight binding; double strand, one strand shown; scale: fold enrichment (6-mer frequency, TF over GST control).

A further assay concerns the target T1, ELF2 (UniProt Q15723).
T1 sequence: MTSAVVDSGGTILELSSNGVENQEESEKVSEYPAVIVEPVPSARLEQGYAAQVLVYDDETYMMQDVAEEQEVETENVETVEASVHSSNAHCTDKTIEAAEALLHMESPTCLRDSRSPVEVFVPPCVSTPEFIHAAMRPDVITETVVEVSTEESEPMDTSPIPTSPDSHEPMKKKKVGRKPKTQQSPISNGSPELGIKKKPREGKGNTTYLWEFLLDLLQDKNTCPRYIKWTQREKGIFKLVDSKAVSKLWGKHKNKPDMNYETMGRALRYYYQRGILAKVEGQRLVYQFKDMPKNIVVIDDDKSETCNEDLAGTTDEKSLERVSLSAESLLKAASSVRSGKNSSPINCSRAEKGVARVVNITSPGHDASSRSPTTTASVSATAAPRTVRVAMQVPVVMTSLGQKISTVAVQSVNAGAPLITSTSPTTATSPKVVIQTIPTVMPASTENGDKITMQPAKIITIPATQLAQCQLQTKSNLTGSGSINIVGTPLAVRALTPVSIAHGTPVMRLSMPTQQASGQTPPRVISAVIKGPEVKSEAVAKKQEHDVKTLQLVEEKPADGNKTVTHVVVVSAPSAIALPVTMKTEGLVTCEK
Described as above. As to conditions: 10 mM Tris-HCl pH 7.5, 50 mM NaCl, 1 mM DTT, 4% glycerol, room temperature, 30 min; GST-TFs on glutathione beads, 16-mer random dsDNA library, 0.1% …; high values mean tight binding; double strand, one strand shown; scale: fold enrichment (6-mer frequency, TF over GST control).

In the case of CGACAC, the binding signal with HSF1 came out at 0.867; in the assay with ELF2, 1.1.

TGGCAG: the binding signal amounted to 0.98 in the assay with HSF1 and 1.04 in the assay with ELF2.

In the case of TCTTGC, the values for the binding signal with HSF1 and in the assay with ELF2 were 1.2 and 1.26, respectively.

For the sequence TTGCCG, the binding signal with HSF1 is 0.948; with ELF2, 1.08.

For the sequence AAAGGT, the binding signal with HSF1 and with ELF2 was 1.02 throughout.

In the case of AACTTC, the binding signal with HSF1 was 2.02; with ELF2 it was 3.35.

For TTAACC, the binding signal with HSF1 is 1.8; with ELF2 it was 1.3.

Regarding TAGCGG, the binding signal was determined as 0.99 with HSF1 and 1.13 with ELF2.

As to ACCAAC, the binding signal in the assay with HSF1 came out at 0.957; in the assay with ELF2, 1.23.

CTAGTT: the binding signal in the assay with HSF1 was 1.51; with ELF2, 1.34.

On to TGACAC, for which the binding signal with HSF1 came to 0.901; with ELF2, 1.15.

Consider TTGACC, for which the binding signal with HSF1 was 1.16; in the assay with ELF2, 1.39.

Turning to CTCAAA, the binding signal is 1.24 with HSF1 and 1.13 with ELF2.

Regarding AATGGC, the binding signal in the assay with HSF1 was determined as 1.28; with ELF2 it was 1.38.

Take CCGATC: the binding signal in the assay with HSF1 worked out at 1.23; with ELF2, 1.18.

For the sequence ACTAAA, the results for the binding signal in the assay with HSF1 and with ELF2 were 1.37 and 1.26, respectively.

Regarding TGTTCA, the binding signal with HSF1 was 1.09; in the assay with ELF2, 1.16.

With TCGATC, the results for the binding signal with HSF1 and with ELF2 were 1.54 and 1.09, respectively.

TTAAAA: the binding signal with HSF1 amounted to 1.87; in the assay with ELF2 it was 1.2.

TTGCGG: the binding signal with HSF1 turned out to be 1.04; with ELF2, 1.51.

In the case of GGAAAC, the figures for the binding signal in the assay with HSF1 and in the assay with ELF2 were 0.945 and 1.68, respectively.

As to ACCCCG, the binding signal with HSF1 was determined as 0.968; in the assay with ELF2, 1.32.

As for TGCTAC, the binding signal with HSF1 was found to be 1.03; with ELF2 it was 1.25.

With AACCTC, the binding signal worked out at 1.17 in the assay with HSF1 and 1.15 with ELF2.

For CGGATA, the binding signal with HSF1 came out at 0.757; in the assay with ELF2, 1.56.

Regarding TCACAT, the binding signal with HSF1 came out at 0.998; with ELF2 it was 1.24.

Regarding TGCCAA, the binding signal with HSF1 stood at 0.979; with ELF2, 1.02.

As for CGCTCA, the binding signal in the assay with HSF1 is 0.994; in the assay with ELF2, 1.1.

On to TGGCCT, for which the binding signal was determined as 1.32 with HSF1 and 1.34 with ELF2.

Turning to TCGCTA, the binding signal came to 1.15 with HSF1 and 0.977 with ELF2.

For the sequence CGATTC, the results for the binding signal with HSF1 and in the assay with ELF2 were 1.35 and 1.14, respectively.

On to TAAAAC, for which the binding signal in the assay with HSF1 worked out at 1.32; with ELF2, 1.18.

On to ACTTTC, for which the binding signal is 2.49 in the assay with HSF1 and 1.57 with ELF2.

TAGTCC: the binding signal with HSF1 stood at 1.21; in the assay with ELF2, 1.07.

As for ACTCTC, the binding signal was 1.55 with HSF1 and 1.31 in the assay with ELF2.

For the sequence ACTTTG, the binding signal with HSF1 was 1.14; in the assay with ELF2, 1.15.

Consider GCTACC, for which the binding signal was 0.955 with HSF1 and 1.26 with ELF2.

As for CTGGGT, the binding signal in the assay with HSF1 and with ELF2 was 1.04 each time.

Consider ATACGT, for which the binding signal turned out to be 0.986 with HSF1 and 1.07 with ELF2.

Take CCCCCG: the binding signal with HSF1 worked out at 0.884; with ELF2 it was 1.08.

Take CGCGTC: the values for the binding signal with HSF1 and with ELF2 were 1.02 and 1.18, respectively.

With TGCTGC, the binding signal was determined as 0.971 with HSF1 and 1.11 with ELF2.

Take CTTTTG: the binding signal came to 1.36 in the assay with HSF1 and 1.35 with ELF2.

As to ATATCG, the binding signal in the assay with HSF1 was 1.14; in the assay with ELF2, 1.13.

With TATCAG, the binding signal in the assay with HSF1 was determined as 1.11; with ELF2, 1.06.

Regarding TTCCTG, the binding signal was found to be 1.63 in the assay with HSF1 and 3.33 in the assay with ELF2.

As to GCATCC, the binding signal with HSF1 was 0.797; with ELF2, 1.68.

Take CTTAGG: the values for the binding signal with HSF1 and in the assay with ELF2 were 1.29 and 1.12, respectively.

As for CGTATG, the binding signal with HSF1 was determined as 0.855; with ELF2, 1.03.

Turning to ATGTCC, the binding signal came out at 1.03 in the assay with HSF1 and 1.81 with ELF2.

Regarding TGCTGA, the binding signal with HSF1 was found to be 0.959; in the assay with ELF2, 1.06.

GGTCTT: the figures for the binding signal with HSF1 and with ELF2 were 1.05 and 1.13, respectively.

Turning to GACATC, the binding signal with HSF1 came out at 0.778; in the assay with ELF2 it was 1.37.

GTACTC: the binding signal with HSF1 was 0.958; with ELF2 it was 1.07.

For TTGCGT, the binding signal with HSF1 came out at 0.945; with ELF2, 0.986.

As for AATACA, the binding signal was found to be 1.25 in the assay with HSF1 and 1.37 with ELF2.

As for CCCCGG, the values for the binding signal with HSF1 and in the assay with ELF2 were 0.87 and 1.56, respectively.

Regarding TGTTAA, the figures for the binding signal in the assay with HSF1 and with ELF2 were 1.3 and 1.09, respectively.

As for CTCTGC, the binding signal came to 1.25 with HSF1 and 1.39 in the assay with ELF2.

On to GTTCAT, for which the binding signal was 0.986 with HSF1 and 1.11 in the assay with ELF2.

Take AAATCC: the binding signal came to 1.9 with HSF1 and 1.72 with ELF2.

Take CTTCAT: the binding signal with HSF1 amounted to 1.34; in the assay with ELF2 it was 1.39.

In the case of AATCGA, the binding signal in the assay with HSF1 came out at 1.38; with ELF2, 0.999.

TCCTAT: the binding signal with HSF1 was 1.41; with ELF2 it was 1.69.

With TCCCAA, the binding signal in the assay with HSF1 was 1.11; with ELF2 it was 1.19.

For TTGCAC, the binding signal came to 1.1 with HSF1 and 1.2 with ELF2.

Consider ATGTGT, for which the binding signal stood at 0.815 with HSF1 and 1.09 with ELF2.

Consider CCGGCA, for which the binding signal with HSF1 is 1.01; with ELF2 it was 1.49.

With GACCTG, the results for the binding signal with HSF1 and with ELF2 were 1.01 and 1.15, respectively.

As for CTAATT, the values for the binding signal in the assay with HSF1 and with ELF2 were 1.47 and 1.35, respectively.

In the case of AATGCT, the binding signal is 1.29 with HSF1 and 1.16 with ELF2.

As for TGCTAA, the binding signal turned out to be 1.32 with HSF1 and 1.22 with ELF2.

Turning to GCTTTA, the binding signal is 1.25 with HSF1 and 1.07 with ELF2.

Take GATCTT: the values for the binding signal in the assay with HSF1 and with ELF2 were 1.62 and 1.24, respectively.

TCTTTA: the binding signal with HSF1 amounted to 1.5; in the assay with ELF2, 1.17.

Turning to CCGCAC, the binding signal in the assay with HSF1 amounted to 1.13; in the assay with ELF2, 1.56.

Take GAAATC: the results for the binding signal in the assay with HSF1 and in the assay with ELF2 were 1.23 and 1.7, respectively.

For CGTCTA, the binding signal with HSF1 came out at 1.52; in the assay with ELF2, 1.22.

In the case of ATGAAT, the binding signal in the assay with HSF1 was 1.19; in the assay with ELF2 it was 1.08.
